PubChem BioAssay AID686938 | Drosophila RNAi Screening Center – 2013
Assay: 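Knock-downs reducing store-operated calcium influx in Drosophila cells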 (primary screen). System: Drosophila S2R+ cells. Reagent: long dsRNA against Drosophila genes, about 0.25 µg dsRNA per well, roughly 10,000 cells. Time to read-out: 5 days of knock-down before the calcium assay. Conditions: thapsigargin (SERCA pump blocker) to empty calcium stores; entry signal taken 4 min after adding it. Read-out: 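Per-well fluo-4 fluorescence in two replicates, unnormalised, measured in resting cells and 4 min after store depletion by the SERCA blocker thapsigargin; ratio of the two present in few wells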. Direction: calcium entry signal: higher = stronger calcium signal after store depletion; resting calcium signal: higher = higher resting calcium signal. Rule for the call: 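Called when the plate z-score of the entry-to-rest ratio, mean of duplicates, falls below −3; wells with low overall dye signal (Fmax z below −2) or more than five off-targets excluded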. Meaning of the calls: active = strongly reduced calcium entry; inactive = no strong reduction.
In all, the deposit lists about 23,000 reagents; shown is a random part of those with a known target gene and a result. Over the whole deposit, 75 (0.33%) were called active. 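Raw plate signals without normalisation; calls rest on plate z-scores that were not deposited; ratio present for only 364 wells.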 Unmarked entries are inactive. Names joined by + are all predicted targets of the reagent. No sequences are given here. The record does not give: the dose of the treatment.

The opening 3 records, to show the layout:
Gene | amplicon | calcium entry signal, replicate 1 (fluorescence units) | calcium entry signal, replicate 2 (fluorescence units) | resting calcium signal, replicate 1 (fluorescence units) | resting calcium signal, replicate 2 (fluorescence units)
CG14190 (GeneID 32891) | DRSC19545 | 5.39e7 | 4.51e7 | 2.65e7 | 1.85e7
PIG-L (GeneID 42388) | DRSC15577 | 3.14e7 | 3.15e7 | 3.79e7 | 1.45e7
CG43774 + CG43773 | DRSC00287 | 4.05e7 | 3.94e7 | 1.85e7 | 1.65e7

The listing, from the start:
Gene | amplicon | calcium entry signal, replicate 1 (fluorescence units) | calcium entry signal, replicate 2 (fluorescence units) | resting calcium signal, replicate 1 (fluorescence units) | resting calcium signal, replicate 2 (fluorescence units)
CG14190 (GeneID 32891) | DRSC19545 | 5.39e7 | 4.51e7 | 2.65e7 | 1.85e7
PIG-L (GeneID 42388) | DRSC15577 | 3.14e7 | 3.15e7 | 3.79e7 | 1.45e7
CG43774 + CG43773 | DRSC00287 | 4.05e7 | 3.94e7 | 1.85e7 | 1.65e7
CG43774 + CG43773 | DRSC00288 | 3.62e7 | 3.73e7 | 1.72e7 | 1.76e7
RhoBTB (GeneID 40249) | DRSC11877 | 4.17e7 | 4.91e7 | 1.87e7 | 3.21e7
CG15756 (GeneID 32308) | DRSC19721 | 3.43e7 | 3.94e7 | 1.63e7 | 1.76e7
Taf9 (GeneID 32762) | DRSC20326 | 2.49e7 | 2.64e7 | 1.26e7 | 1.34e7
CG42542 (GeneID 8674000) | DRSC15549 | 3.71e7 | 4.88e7 | 1.61e7 | 2.16e7
CG42542 (GeneID 8674000) | DRSC22264 | 2.72e7 | 4.21e7 | 1.37e7 | 1.90e7
eEF1gamma (GeneID 44791) | DRSC16659 | 1.52e7 | 1.85e7 | 9.99e6 | 1.08e7
Ugt35A1 (GeneID 41334) | DRSC16892 | 3.90e7 | 4.98e7 | 1.71e7 | 2.12e7
CHMP2B (GeneID 38599) | DRSC10436 | 6.30e7 | 4.88e7 | 3.85e7 | 1.87e7
FipoQ (GeneID 43475) | DRSC15413 | 3.27e7 | 3.19e7 | 1.93e7 | 1.54e7
CG2104 (GeneID 40702) | DRSC12304 | 4.87e7 | 3.67e7 | 2.39e7 | 1.89e7
SNF4Agamma (GeneID 42515) | DRSC13461 | 5.40e7 | 3.75e7 | 2.60e7 | 1.85e7
SNF4Agamma (GeneID 42515) | DRSC13463 | 4.66e7 | 3.92e7 | 2.42e7 | 1.88e7
SNF4Agamma (GeneID 42515) | DRSC15879 | 3.09e7 | 3.60e7 | 6.62e7 | 1.69e7
SNF4Agamma (GeneID 42515) | DRSC16847 | 6.58e7 | 4.23e7 | 3.31e7 | 2.16e7
His3:CG33818 + His3:CG33857 + His3:CG33806 + 20 more | DRSC21267 | 1.44e7 | 1.55e7 | 1.14e7 | 9.80e6
EloC (GeneID 37237) | DRSC07423 | 4.42e7 | 4.56e7 | 2.44e7 | 2.47e7
CG42346 (GeneID 3355160) | DRSC20622 | 4.65e7 | 4.72e7 | 2.25e7 | 1.94e7
CG42346 (GeneID 3355160) | DRSC20644 | 4.81e7 | 4.92e7 | 2.26e7 | 2.05e7
dnr1 (GeneID 37575) | DRSC03948 | 2.73e7 | 5.95e7 | 1.23e7 | 2.07e7
dnr1 (GeneID 37575) | DRSC04122 | 3.38e7 | 3.01e7 | 1.76e7 | 1.54e7
